# Results: the supplement of paper PMC12823440, “Inhibitors supercharge kinase turnover through native proteolytic circuits” (Nature, 2025)
# Chains of the proteins cited; added tags and fusions are not shown. Lines headed by an entry give the natural chain unless they say otherwise; changes in a name come on top.
# UniProt Q15208: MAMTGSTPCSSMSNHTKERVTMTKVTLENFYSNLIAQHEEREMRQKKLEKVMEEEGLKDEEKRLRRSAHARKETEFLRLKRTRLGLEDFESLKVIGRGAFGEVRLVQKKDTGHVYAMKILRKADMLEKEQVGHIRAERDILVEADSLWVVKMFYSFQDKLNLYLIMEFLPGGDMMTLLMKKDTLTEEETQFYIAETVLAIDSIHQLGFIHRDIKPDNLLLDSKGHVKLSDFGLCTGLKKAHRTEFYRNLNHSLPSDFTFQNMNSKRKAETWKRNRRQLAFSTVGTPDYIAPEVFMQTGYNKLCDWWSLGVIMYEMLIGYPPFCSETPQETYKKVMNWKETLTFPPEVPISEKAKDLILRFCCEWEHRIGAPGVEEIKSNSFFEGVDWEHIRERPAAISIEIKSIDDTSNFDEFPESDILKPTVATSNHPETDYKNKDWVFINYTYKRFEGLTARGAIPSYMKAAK
# UniProt P42680: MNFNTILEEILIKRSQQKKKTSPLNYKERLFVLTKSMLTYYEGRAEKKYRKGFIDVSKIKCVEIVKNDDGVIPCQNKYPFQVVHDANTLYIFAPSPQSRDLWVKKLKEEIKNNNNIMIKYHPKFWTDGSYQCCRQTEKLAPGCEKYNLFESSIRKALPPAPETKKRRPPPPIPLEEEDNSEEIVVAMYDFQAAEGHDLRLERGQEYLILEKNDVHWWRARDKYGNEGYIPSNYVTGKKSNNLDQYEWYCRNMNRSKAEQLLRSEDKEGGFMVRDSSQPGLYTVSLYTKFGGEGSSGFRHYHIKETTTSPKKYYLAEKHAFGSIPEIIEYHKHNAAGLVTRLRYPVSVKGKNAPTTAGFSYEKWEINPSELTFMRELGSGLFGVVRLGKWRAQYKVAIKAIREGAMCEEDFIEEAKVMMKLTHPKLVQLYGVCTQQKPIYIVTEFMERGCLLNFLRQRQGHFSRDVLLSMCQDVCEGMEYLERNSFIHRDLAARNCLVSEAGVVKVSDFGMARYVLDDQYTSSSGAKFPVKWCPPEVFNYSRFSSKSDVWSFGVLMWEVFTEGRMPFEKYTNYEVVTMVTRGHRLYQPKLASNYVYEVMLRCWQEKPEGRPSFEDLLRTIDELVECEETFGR
# UniProt P29597: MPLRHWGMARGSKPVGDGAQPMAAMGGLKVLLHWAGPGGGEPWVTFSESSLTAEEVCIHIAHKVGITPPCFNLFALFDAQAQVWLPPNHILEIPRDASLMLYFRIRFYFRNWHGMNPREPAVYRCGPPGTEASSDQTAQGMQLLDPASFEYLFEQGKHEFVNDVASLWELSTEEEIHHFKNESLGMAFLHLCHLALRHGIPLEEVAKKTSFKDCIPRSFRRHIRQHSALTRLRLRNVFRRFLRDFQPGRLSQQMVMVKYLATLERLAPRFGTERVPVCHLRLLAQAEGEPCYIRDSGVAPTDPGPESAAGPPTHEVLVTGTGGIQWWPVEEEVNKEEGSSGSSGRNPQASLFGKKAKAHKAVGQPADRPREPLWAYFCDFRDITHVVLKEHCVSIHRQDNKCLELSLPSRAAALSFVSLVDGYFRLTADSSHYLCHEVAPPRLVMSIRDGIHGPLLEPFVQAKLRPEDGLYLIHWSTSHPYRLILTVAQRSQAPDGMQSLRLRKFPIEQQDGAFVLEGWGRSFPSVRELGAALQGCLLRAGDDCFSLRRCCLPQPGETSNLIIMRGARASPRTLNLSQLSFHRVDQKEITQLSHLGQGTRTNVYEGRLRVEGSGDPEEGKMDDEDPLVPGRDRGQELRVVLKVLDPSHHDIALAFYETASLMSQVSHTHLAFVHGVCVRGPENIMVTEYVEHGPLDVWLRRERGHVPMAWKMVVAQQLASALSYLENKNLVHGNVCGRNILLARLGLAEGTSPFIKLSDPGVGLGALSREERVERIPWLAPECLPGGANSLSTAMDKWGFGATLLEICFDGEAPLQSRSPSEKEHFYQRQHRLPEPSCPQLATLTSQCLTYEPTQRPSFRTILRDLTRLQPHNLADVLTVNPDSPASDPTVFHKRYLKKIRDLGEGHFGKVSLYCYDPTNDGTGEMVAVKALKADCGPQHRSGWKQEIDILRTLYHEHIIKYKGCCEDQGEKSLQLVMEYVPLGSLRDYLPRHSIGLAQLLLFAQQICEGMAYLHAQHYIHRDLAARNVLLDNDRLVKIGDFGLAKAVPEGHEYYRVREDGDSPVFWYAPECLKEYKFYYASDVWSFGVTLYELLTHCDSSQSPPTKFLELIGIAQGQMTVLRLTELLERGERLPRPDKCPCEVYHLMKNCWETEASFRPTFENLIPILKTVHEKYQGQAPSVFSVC
# UniProt Q6PHR2: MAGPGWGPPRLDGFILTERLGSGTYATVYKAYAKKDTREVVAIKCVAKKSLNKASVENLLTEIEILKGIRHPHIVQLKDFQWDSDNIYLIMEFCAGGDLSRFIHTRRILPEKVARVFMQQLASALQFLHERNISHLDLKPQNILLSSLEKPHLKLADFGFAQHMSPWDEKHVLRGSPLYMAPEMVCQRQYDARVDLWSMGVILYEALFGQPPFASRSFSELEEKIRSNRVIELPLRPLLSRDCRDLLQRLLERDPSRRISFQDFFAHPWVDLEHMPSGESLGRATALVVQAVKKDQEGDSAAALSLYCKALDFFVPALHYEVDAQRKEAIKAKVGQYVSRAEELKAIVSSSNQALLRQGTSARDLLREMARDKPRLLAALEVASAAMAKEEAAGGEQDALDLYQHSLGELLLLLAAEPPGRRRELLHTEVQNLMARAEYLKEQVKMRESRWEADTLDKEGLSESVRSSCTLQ
# UniProt P07947, whole entry, looked up: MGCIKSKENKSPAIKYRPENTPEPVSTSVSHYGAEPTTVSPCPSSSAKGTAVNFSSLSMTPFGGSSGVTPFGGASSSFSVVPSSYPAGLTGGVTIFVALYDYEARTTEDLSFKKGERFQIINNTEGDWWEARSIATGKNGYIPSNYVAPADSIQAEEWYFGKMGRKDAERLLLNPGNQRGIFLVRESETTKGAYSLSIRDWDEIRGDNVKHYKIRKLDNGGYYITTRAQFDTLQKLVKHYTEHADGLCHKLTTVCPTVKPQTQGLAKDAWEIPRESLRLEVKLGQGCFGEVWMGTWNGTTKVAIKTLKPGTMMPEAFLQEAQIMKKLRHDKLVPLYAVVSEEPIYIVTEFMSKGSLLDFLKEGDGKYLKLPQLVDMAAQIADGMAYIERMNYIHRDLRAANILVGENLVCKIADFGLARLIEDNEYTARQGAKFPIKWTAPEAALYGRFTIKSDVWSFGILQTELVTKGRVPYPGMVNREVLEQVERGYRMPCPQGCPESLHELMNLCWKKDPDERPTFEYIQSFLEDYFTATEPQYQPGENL
# UniProt P43403: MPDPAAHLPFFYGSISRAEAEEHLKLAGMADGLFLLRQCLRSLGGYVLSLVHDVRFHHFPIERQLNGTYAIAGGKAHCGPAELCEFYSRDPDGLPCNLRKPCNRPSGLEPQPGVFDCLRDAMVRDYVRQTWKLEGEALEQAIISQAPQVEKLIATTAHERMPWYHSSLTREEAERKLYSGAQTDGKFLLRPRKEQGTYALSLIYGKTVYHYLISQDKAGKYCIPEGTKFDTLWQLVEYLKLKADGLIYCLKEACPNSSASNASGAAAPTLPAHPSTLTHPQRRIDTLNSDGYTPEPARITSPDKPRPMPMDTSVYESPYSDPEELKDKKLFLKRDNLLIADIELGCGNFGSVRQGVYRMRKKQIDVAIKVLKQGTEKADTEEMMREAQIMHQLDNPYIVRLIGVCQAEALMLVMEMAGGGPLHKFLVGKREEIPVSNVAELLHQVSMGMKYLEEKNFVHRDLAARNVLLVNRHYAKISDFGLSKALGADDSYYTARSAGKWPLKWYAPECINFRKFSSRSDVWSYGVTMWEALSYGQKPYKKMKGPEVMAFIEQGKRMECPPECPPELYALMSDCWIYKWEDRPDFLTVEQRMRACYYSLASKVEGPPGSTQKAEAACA
# UniProt P00519, whole entry: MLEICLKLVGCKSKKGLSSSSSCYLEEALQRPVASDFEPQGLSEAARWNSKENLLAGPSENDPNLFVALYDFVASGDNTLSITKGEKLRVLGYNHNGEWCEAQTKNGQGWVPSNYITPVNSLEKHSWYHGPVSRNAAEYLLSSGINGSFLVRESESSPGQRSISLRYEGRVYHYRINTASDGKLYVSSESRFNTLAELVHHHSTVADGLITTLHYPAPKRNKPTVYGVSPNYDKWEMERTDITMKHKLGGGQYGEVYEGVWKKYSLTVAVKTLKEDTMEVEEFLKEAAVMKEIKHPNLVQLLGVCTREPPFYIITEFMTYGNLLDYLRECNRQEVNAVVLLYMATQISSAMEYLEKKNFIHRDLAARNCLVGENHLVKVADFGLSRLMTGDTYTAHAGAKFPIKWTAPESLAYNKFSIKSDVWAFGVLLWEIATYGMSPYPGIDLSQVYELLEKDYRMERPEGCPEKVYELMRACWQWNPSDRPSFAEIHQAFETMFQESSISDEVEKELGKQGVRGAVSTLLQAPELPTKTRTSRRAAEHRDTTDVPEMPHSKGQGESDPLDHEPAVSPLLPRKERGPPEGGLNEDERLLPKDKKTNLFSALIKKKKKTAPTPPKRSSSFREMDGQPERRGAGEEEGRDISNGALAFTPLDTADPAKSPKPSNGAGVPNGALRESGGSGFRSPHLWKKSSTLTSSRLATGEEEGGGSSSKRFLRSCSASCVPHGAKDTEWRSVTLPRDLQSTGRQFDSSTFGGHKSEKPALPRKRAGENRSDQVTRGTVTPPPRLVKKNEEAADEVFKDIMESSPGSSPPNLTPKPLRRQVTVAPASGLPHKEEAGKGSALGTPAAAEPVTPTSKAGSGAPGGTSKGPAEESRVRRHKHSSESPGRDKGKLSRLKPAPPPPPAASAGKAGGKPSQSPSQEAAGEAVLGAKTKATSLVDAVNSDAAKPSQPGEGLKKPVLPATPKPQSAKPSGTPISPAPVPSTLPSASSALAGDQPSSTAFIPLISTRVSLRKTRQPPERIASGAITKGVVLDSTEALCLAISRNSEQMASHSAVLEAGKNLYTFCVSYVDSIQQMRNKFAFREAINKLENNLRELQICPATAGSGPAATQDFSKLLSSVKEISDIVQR
# UniProt P31749: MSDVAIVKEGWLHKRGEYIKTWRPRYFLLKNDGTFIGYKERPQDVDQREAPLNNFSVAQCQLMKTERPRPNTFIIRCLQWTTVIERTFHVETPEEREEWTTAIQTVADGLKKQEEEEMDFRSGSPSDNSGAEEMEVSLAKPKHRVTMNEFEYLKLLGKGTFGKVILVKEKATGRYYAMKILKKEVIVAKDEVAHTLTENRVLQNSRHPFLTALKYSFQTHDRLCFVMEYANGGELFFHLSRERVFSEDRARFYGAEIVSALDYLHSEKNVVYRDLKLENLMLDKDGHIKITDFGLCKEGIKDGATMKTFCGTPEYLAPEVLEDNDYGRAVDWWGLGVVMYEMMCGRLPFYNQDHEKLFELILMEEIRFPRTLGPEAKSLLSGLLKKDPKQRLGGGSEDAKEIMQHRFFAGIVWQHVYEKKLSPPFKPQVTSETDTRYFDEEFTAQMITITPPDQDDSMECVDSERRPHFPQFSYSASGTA
# Counter-ions that a name gives are not always drawn. This is one part of the list. Hit calls seldom repeat between salt and free forms of one compound.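 Kinases, fused to nanoluciferase, were expressed in K562 cells; luminescence was measured every 4 h from 2 to 18 h as percent of control (DMSO = 100%, positive control = 0%). A time point is decreased if signal falls significantly (2 sigma). Hits were called by the authors by a rule that is not shown; the count of time points alone does not decide it.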
# What was measured:
# Conditions in all cases: K562; 2-18 h
# STK38 = STK38 (UniProt Q15208); test: kinase-Nluc reporter destabilization hit call (1 = scored as downregulated) (binary); higher = compound decreases kinase abundance
# SYK = SYK (UniProt P43405); test: as above
# TEC = TEC (UniProt P42680); test: as above
# TYK2 = TYK2 (UniProt P29597); test: as above
# ULK3 = ULK3 (UniProt Q6PHR2); test: as above
# YES1 = YES1 (UniProt P07947); test: as above
# ZAK = ZAK (UniProt Q9NYL2); test: as above
# ZAP70 = ZAP70 (UniProt P43403); test: as above
# ABL1 = ABL1 (UniProt P00519); test: number of time points (of 5) at which kinase-Nluc abundance scored as decreased, DMSO-normalised (count); higher = more persistent destabilization
# AKT1 = AKT1 (UniProt P31749); test: as above
SMILES,kinase-Nluc reporter destabilization hit call (STK38),kinase-Nluc reporter destabilization hit call (SYK),kinase-Nluc reporter destabilization hit call (TEC),kinase-Nluc reporter destabilization hit call (TYK2),kinase-Nluc reporter destabilization hit call (ULK3),kinase-Nluc reporter destabilization hit call (YES1),kinase-Nluc reporter destabilization hit call (ZAK),kinase-Nluc reporter destabilization hit call (ZAP70),number of time points (ABL1),number of time points (AKT1)
"CN1CC[C@H](c2c(O)cc(O)c3c(=O)cc(-c4ccc(C(F)(F)F)cc4Cl)oc23)[C@H]1CO [(2S,3R)-Voruciclib (hydrochloride)] (2.5 µM)",inactive: 0,inactive: 0,inactive: 0,inactive: 0,inactive: 0,inactive: 0,inactive: 0,inactive: 0,0,0
O=C(O)c1ccc(N2N=C(Cc3ccccc3)C(=Cc3ccc(-c4ccccc4F)o3)C2=O)cc1 (10 µM),inactive: 0,inactive: 0,inactive: 0,inactive: 0,inactive: 0,inactive: 0,inactive: 0,inactive: 0,0,0
Cc1nc(NC(=O)NCCc2nnn(CCF)n2)sc1-c1ccc(S(C)(=O)=O)c(F)c1 (10 µM),inactive: 0,inactive: 0,inactive: 0,inactive: 0,inactive: 0,inactive: 0,inactive: 0,inactive: 0,0,0
Nc1nc2cc(-c3ccc4ncc(C(=O)N5CCOCC5)n4c3)ccc2o1 [Serabelisib] (10 µM),inactive: 0,inactive: 0,inactive: 0,inactive: 0,inactive: 0,inactive: 0,inactive: 0,inactive: 0,0,0
CCN1C(=O)CNc2ncc(-c3ccc(-c4nc[nH]n4)nc3C)nc21 [CC-115 (hydrochloride)] (2.5 µM),inactive: 0,inactive: 0,inactive: 0,inactive: 0,inactive: 0,inactive: 0,inactive: 0,inactive: 0,5,0
COc1ccc(CCNc2ncc3c(=O)n(-c4cccc(F)c4)c(=O)[nH]c3n2)cc1OC (2 µM),inactive: 0,inactive: 0,inactive: 0,inactive: 0,inactive: 0,inactive: 0,inactive: 0,inactive: 0,0,0
O=c1ccoc2cc(O)ccc12 [7-Hydroxy-4H-chromen-4-one] (10 µM),inactive: 0,inactive: 0,inactive: 0,inactive: 0,inactive: 0,inactive: 0,inactive: 0,inactive: 0,0,0
O=c1cc(-c2ccc(O)c(O)c2O)oc2ccccc12 (10 µM),inactive: 0,inactive: 0,inactive: 0,inactive: 0,inactive: 0,inactive: 0,inactive: 0,inactive: 0,0,0
C[C@H]1[C@H](OC(=O)CCC(=O)O)O[C@@H]2O[C@@]3(C)CC[C@H]4[C@H](C)CC[C@@H]1[C@@]24OO3 [Artesunate] (2.5 µM),inactive: 0,inactive: 0,inactive: 0,inactive: 0,inactive: 0,inactive: 0,inactive: 0,inactive: 0,2,0
CC(=O)NCCc1c[nH]c2ccc(O)cc12 [N-Acetyl-5-hydroxytryptamine] (10 µM),inactive: 0,inactive: 0,inactive: 0,inactive: 0,inactive: 0,inactive: 0,inactive: 0,inactive: 0,0,0
c1cc(-c2cnn3cc(-c4ccc(N5CCNCC5)cc4)cnc23)c2cccnc2c1 (2.5 µM),inactive: 0,inactive: 0,inactive: 0,inactive: 0,inactive: 0,inactive: 0,inactive: 0,inactive: 0,0,0
COc1cnccc1Nc1nc(-c2nn(Cc3c(F)cc(OCCO)cc3F)c3ccccc23)ncc1OC (10 µM),inactive: 0,inactive: 0,inactive: 0,inactive: 0,inactive: 0,inactive: 0,inactive: 0,inactive: 0,0,0
COc1ccccc1/C=C1\C(=O)Nc2ccccc21 (10 µM),inactive: 0,inactive: 0,inactive: 0,inactive: 0,inactive: 0,inactive: 0,inactive: 0,inactive: 0,0,0
Cc1ccc(-c2ccc3c(ccc4sc5c(c43)NC[C@@H](C)NC5=O)n2)cn1 (10 µM),inactive: 0,inactive: 0,inactive: 0,inactive: 0,inactive: 0,inactive: 0,inactive: 0,inactive: 0,0,0

# An excerpt of these results, with tabs:
SMILES	kinase-Nluc reporter destabilization hit call (STK38)	kinase-Nluc reporter destabilization hit call (SYK)	kinase-Nluc reporter destabilization hit call (TEC)	kinase-Nluc reporter destabilization hit call (TYK2)	kinase-Nluc reporter destabilization hit call (ULK3)	kinase-Nluc reporter destabilization hit call (YES1)	kinase-Nluc reporter destabilization hit call (ZAK)	kinase-Nluc reporter destabilization hit call (ZAP70)	number of time points (ABL1)	number of time points (AKT1)
C[C@H]1[C@H](OC(=O)CCC(=O)O)O[C@@H]2O[C@@]3(C)CC[C@H]4[C@H](C)CC[C@@H]1[C@@]24OO3 [Artesunate] (2.5 µM)	inactive: 0	inactive: 0	inactive: 0	inactive: 0	inactive: 0	inactive: 0	inactive: 0	inactive: 0	2	0
CC(=O)NCCc1c[nH]c2ccc(O)cc12 [N-Acetyl-5-hydroxytryptamine] (10 µM)	inactive: 0	inactive: 0	inactive: 0	inactive: 0	inactive: 0	inactive: 0	inactive: 0	inactive: 0	0	0
